PMC3253059
Results are given in words; binding and its absence hold for the method and conditions named. In cells and extracts the contact can be indirect. Some results given as binding are weak or reduced against the parent protein; the word gives no strength. Each block holds one binder with its values, some of them ahead of it.

By UniProt entry, the sequences of proteins in these tests, tags left out. Residues count along the entry.
UniProt Q00960, residues 27-1482: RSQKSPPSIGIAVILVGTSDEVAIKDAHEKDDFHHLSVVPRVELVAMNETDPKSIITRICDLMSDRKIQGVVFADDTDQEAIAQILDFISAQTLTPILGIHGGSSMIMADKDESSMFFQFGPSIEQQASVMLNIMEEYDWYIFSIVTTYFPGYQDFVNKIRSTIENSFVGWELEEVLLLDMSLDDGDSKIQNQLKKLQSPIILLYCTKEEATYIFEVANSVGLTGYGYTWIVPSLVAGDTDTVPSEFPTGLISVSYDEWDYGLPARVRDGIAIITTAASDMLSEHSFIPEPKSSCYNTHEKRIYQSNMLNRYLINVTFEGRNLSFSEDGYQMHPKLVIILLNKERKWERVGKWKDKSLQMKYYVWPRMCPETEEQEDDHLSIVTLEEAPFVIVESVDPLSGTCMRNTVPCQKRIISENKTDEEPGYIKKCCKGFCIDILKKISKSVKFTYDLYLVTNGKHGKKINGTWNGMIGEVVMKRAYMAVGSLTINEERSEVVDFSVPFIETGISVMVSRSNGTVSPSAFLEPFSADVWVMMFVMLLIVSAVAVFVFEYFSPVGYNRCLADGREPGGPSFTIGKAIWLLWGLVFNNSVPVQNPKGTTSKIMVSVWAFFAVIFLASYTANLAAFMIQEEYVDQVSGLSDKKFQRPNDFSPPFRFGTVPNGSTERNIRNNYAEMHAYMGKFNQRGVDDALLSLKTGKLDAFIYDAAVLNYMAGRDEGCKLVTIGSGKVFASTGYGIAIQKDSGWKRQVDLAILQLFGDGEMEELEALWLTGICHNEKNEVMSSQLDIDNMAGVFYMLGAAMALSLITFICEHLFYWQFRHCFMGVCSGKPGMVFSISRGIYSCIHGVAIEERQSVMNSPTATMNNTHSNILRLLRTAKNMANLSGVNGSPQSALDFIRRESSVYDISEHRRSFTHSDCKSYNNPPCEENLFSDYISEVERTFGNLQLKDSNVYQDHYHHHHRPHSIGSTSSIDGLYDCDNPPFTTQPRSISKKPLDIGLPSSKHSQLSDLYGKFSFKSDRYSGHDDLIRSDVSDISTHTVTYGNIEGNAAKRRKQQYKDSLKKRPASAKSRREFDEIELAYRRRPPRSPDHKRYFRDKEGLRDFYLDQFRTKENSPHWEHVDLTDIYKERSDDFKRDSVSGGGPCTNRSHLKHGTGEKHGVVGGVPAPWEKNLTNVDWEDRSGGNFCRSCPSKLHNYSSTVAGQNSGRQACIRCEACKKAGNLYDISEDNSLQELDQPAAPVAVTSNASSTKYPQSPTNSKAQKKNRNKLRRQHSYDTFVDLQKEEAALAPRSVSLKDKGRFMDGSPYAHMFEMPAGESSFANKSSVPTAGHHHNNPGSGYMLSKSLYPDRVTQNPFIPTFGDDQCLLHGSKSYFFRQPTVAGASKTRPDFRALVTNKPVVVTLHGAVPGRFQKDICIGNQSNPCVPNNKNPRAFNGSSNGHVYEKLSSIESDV

Target: NR2B subunit of the NMDA receptor (rat (endogenous in lumbar spinal dorsal horn)) (UniProt Q00960)
Test: co-IP; rabbit anti-NR2B antibody (5 μg) on Protein G Dynabeads; 500 μg of spinal dorsal horn lysate from naïve rats (RIPA buffer + 0.5% DOC), incubated overnight; eluate blotted for NR2B, PKCζ, CREB and P2X3

- binding: binds
B1: atypical protein kinase C zeta (PKCζ) (enzyme, UniProt P09217 1-592)
chain: MPSRTDPKMDRSGGRVRLKAHYGGDILITSVDPTTTFQDLCEEVRDMCGLHQQHPLTLKWVDSEGDPCTVSSQMELEEAFRLACQGRDEVLIIHVFPSIPEQPGMPCPGEDKSIYRRGARRWRKLYRANGHLFQAKRFNRRAYCGQCSERIWGLARQGYRCINCKLLVHKRCHVLVPLTCRRHMDSVMPSQEPPVDDKNDGVDLPSEETDGIAYISSSRKHDNIKDDSEDLKPVIDGVDGIKISQGLGLQDFDLIRVIGRGSYAKVLLVRLKKNDQIYAMKVVKKELVHDDEDIDWVQTEKHVFEQASSNPFLVGLHSCFQTTSRLFLVIEYVNGGDLMFHMQRQRKLPEEHARFYAAEICIALNFLHERGIIYRDLKLDNVLLDADGHIKLTDYGMCKEGLGPGDTTSTFCGTPNYIAPEILRGEEYGFSVDWWALGVLMFEMMAGRSPFDIITDNPDMNTEDYLFQVILEKPIRIPRFLSVKASHVLKGFLNKDPKERLGCRPQTGFSDIKSHAFFRSIDWDLLEKKQTLPPFQPQITDDYGLDNFDTQFTSEPVQLTPDDEDVIKRIDQSEFEGFEYINPLLLSAEESV

- binding: no binding
B2: P2X3 receptor (receptor, UniProt P49654 1-397)
chain: MNCISDFFTYETTKSVVVKSWTIGIINRAVQLLIISYFVGWVFLHEKAYQVRDTAIESSVVTKVKGFGRYANRVMDVSDYVTPPQGTSVFVIITKMIVTENQMQGFCPENEEKYRCVSDSQCGPERFPGGGILTGRCVNYSSVLRTCEIQGWCPTEVDTVEMPIMMEAENFTIFIKNSIRFPLFNFEKGNLLPNLTDKDIKRCRFHPEKAPFCPILRVGDVVKFAGQDFAKLARTGGVLGIKIGWVCDLDKAWDQCIPKYSFTRLDGVSEKSSVSPGYNFRFAKYYKMENGSEYRTLLKAFGIRFDVLVYGNAGKFNIIPTIISSVAAFTSVGVGTVLCDIILLNFLKGADHYKARKFEEVTETTLKGTASTNPVFASDQATVEKQSTDSGAYSIGH
